Taken from: PubChem BioAssay AID743121 (NCATS, 2013)
Here is an unselected part of about 26,000 reagents tested. 167 of them (0.63%) count as active. 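Calls are per gene from RSA p-values that are not deposited; an individual active-marked siRNA can sensitise only weakly.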 A number with no mark means an inactive call. Reagents against one gene are numbered here.

Test: 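Partners whose loss is lethal together with topoisomerase I blockade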 (primary screen)
System: MDA-MB-231 cells, a human breast cancer line
Reagents: single siRNA against human genes, 20 nM siRNA (0.8 pmol per well)
Duration: 120 h (drug added 48 h after transfection, read 72 h later)
Conditions: camptothecin 20 nM (about EC30) for 72 h; vehicle 0.1% DMSO in parallel plates
Read-out: 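CellTiter-Glo ATP signal, scaled to control siRNA as percent viability; sensitisation given as log2 of untreated divided by camptothecin-treated viability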
Reading the numbers: log2 vehicle/camptothecin viability: higher = stronger sensitisation to camptothecin; viability with camptothecin and viability without drug: higher = more viable cells
Active means: 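Active genes have an RSA gene-level p-value below 0.001, computed from the ratios of their separate siRNAs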

target	siRNA no.	log2 vehicle/camptothecin viability	viability with camptothecin (% of control)	viability without drug (% of control)
ADGRL4 (GeneID 64123)	1	0.702	54.5	88.7
ADGRL4 (GeneID 64123)	2	-0.361	88.2	68.6
ADGRL4 (GeneID 64123)	3	-0.279	79.7	65.7
ADGRL4 (GeneID 64123)	4	-0.437	86.4	63.9
CATSPER3 (GeneID 347732)	1	-0.189	103	90
CATSPER3 (GeneID 347732)	2	-0.181	102	90
CATSPER3 (GeneID 347732)	3	-0.00172	101	101
RBM5 (GeneID 10181)	1	-0.308	77.1	62.3
RBM5 (GeneID 10181)	2	-0.364	95.4	74.1
RBM5 (GeneID 10181)	3	-0.288	53	43.4
RBM5 (GeneID 10181)	4	0.088	50	53.1
MERTK (GeneID 10461)	1	0.00576	74.4	74.7
MERTK (GeneID 10461)	2	-0.0667	94.1	89.9
MERTK (GeneID 10461)	3	-0.42	111	82.6
MERTK (GeneID 10461)	4	0.16	69.8	77.9
AZU1 (GeneID 566)	1	-0.244	73.2	61.8
AZU1 (GeneID 566)	2	-0.478	97	69.6
AZU1 (GeneID 566)	3	-0.506	33.2	23.4
AZU1 (GeneID 566)	4	0.105	65.1	70
KIF3A (GeneID 11127)	1	-0.137	114	104
KIF3A (GeneID 11127)	2	-0.472	53.2	38.3
KIF3A (GeneID 11127)	3	0.238	75.5	89.1
KIF3A (GeneID 11127)	4	-0.0643	96.6	92.4
MRAS (GeneID 22808)	1	-0.0265	79.8	78.3
MRAS (GeneID 22808)	2	-0.106	82.4	76.5
MRAS (GeneID 22808)	3	0.0576	56.9	59.2
MRAS (GeneID 22808)	4	-0.774	42.2	24.6
IFNK (GeneID 56832)	1	-0.023	80.7	79.4
IFNK (GeneID 56832)	2	-0.596	68.6	45.4
IFNK (GeneID 56832)	3	-0.187	110	96.6
IFNK (GeneID 56832)	4	-0.379	95.7	73.6
CLOCK (GeneID 9575)	1	-0.581	63.4	42.4
CLOCK (GeneID 9575)	2	0.507	7.94	11.3
CLOCK (GeneID 9575)	3	-0.147	83	74.9
CLOCK (GeneID 9575)	4	0.205	67.2	77.4
MPIG6B (GeneID 80739)	1	0.121	13.3	14.5
MPIG6B (GeneID 80739)	2	-0.133	55.9	51
MPIG6B (GeneID 80739)	3	-0.14	66.4	60.3
MPIG6B (GeneID 80739)	4	-0.555	57.4	39
MBTPS2 (GeneID 51360)	1	-0.476	68.2	49
MBTPS2 (GeneID 51360)	2	-0.283	110	90.6
MBTPS2 (GeneID 51360)	3	0.1	100	107
MBTPS2 (GeneID 51360)	4	-0.331	127	101
MRE11 (GeneID 4361)	1	-0.232	35	29.8
MRE11 (GeneID 4361)	2	0.378	67.6	87.8
MRE11 (GeneID 4361)	3	0.433	63.4	85.6
MRE11 (GeneID 4361)	4	-0.195	80.2	70.1

6 successive entries already listed, quoted:
target	siRNA no.	log2 vehicle/camptothecin viability	viability with camptothecin (% of control)	viability without drug (% of control)
IFNK (GeneID 56832)	2	-0.596	68.6	45.4
IFNK (GeneID 56832)	3	-0.187	110	96.6
IFNK (GeneID 56832)	4	-0.379	95.7	73.6
CLOCK (GeneID 9575)	1	-0.581	63.4	42.4
CLOCK (GeneID 9575)	2	0.507	7.94	11.3
CLOCK (GeneID 9575)	3	-0.147	83	74.9
